The list shows a part of the results, in another mix than the full data. The calls were merged from several studies; some rest on single wells. The list shows a part of the results.
How the values were obtained:
Settings in all cases: stereoisomer not certain
OR10C1 (Homo sapiens) = target: T1, OR10C1 (Homo sapiens) (UniProt Q96KK4)
T1 sequence (whole entry): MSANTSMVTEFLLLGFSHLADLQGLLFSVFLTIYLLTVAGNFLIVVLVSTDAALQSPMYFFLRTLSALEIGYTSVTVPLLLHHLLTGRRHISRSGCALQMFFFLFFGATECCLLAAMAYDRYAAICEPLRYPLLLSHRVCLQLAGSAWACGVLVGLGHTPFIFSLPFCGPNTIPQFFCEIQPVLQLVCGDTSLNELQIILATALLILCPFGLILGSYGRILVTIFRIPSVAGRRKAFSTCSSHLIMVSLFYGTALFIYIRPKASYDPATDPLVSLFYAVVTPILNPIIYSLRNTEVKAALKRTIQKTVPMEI
In short: (§1)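 Whether a receptor–molecule pair is responsive (active) rests on the original authors' judgment that its measured signal was statistically different from baseline. Pairs without that judgment are non-responsive (inactive). Sources used varied assay methods, commonly transient luciferase assays in mammalian cell lines.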

OR10G6 (Homo sapiens) = target: T2, OR10G6 (Homo sapiens) (UniProt Q8NH81)
T2 sequence (whole entry): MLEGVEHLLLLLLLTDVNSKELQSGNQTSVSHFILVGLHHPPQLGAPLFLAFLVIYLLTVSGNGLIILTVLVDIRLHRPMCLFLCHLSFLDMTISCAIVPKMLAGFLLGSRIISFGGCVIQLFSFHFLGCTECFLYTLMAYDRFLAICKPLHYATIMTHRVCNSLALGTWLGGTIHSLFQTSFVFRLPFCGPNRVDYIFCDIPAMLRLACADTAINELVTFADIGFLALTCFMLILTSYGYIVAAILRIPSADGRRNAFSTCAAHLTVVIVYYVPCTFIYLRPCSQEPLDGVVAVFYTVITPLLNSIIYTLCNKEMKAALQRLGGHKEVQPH
In short: as §1

OR10G7 (Homo sapiens) = target: T3, OR10G7 (Homo sapiens) (UniProt Q8NGN6)
T3 sequence (whole entry): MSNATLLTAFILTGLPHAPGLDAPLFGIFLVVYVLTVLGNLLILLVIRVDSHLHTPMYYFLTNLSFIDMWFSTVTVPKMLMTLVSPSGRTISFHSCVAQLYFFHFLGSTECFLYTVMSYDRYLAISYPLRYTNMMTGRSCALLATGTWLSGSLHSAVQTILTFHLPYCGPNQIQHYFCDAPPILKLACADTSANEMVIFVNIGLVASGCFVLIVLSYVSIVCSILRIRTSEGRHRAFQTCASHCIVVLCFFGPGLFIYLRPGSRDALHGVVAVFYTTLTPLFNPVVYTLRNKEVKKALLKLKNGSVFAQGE
In short: as §1

OR10G8 (Homo sapiens) = target: T4, OR10G8 (Homo sapiens) (UniProt Q8NGN5)
T4 sequence (whole entry): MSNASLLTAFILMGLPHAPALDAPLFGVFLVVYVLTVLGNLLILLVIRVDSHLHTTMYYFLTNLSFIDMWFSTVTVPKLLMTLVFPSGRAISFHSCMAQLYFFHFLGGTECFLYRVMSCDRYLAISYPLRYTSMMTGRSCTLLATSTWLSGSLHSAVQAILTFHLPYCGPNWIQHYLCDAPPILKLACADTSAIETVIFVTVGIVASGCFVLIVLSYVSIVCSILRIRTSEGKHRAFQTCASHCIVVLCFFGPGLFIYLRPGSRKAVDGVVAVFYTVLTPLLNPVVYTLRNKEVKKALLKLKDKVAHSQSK
In short: as §1

OR10H1 (Homo sapiens) = target: T5, OR10H1 (Homo sapiens) (UniProt Q9Y4A9)
T5 sequence (whole entry): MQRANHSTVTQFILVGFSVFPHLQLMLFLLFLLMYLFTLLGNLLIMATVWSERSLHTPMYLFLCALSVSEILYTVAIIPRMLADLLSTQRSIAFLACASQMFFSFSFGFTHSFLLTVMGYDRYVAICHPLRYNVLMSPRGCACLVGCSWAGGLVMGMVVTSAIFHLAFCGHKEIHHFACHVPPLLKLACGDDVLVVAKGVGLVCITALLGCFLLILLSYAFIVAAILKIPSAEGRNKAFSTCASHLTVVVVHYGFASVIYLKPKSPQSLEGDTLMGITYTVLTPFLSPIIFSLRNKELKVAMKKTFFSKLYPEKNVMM
In short: as §1

OR10H3 (Homo sapiens) = target: T6, OR10H3 (Homo sapiens) (UniProt O60404)
T6 sequence (whole entry): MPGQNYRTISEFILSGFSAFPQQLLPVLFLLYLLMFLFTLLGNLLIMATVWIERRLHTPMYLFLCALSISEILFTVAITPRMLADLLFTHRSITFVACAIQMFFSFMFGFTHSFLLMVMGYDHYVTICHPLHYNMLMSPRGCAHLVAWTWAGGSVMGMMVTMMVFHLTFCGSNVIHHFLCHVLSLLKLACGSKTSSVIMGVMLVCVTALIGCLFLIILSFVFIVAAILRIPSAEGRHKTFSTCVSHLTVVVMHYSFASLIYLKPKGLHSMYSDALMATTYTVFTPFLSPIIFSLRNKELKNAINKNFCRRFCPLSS
In short: as §1

OR10H4 (Homo sapiens) = target: T7, OR10H4 (Homo sapiens) (UniProt Q8NGA5)
T7 sequence (whole entry): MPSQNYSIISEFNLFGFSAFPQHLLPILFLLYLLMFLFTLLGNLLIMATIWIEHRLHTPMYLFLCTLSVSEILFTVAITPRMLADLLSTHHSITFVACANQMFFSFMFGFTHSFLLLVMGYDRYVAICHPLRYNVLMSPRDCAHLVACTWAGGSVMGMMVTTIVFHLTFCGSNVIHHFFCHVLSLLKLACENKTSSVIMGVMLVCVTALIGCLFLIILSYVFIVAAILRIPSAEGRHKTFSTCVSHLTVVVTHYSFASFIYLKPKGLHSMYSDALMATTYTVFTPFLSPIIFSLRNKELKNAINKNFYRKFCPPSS
In short: as §1

OR10J5 (Homo sapiens) = target: T8, OR10J5 (Homo sapiens) (UniProt Q8NHC4)
T8 sequence (whole entry): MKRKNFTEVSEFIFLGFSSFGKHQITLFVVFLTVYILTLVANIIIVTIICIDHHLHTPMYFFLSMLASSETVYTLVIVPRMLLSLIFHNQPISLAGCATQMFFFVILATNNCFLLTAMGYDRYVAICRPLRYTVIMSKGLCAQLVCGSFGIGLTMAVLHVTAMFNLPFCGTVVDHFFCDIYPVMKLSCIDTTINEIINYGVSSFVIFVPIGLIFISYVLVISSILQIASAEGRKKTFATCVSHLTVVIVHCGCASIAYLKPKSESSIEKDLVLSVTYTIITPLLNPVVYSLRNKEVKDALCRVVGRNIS
In short: as §1

OR10K1 (Homo sapiens) = target: T9, OR10K1 (Homo sapiens) (UniProt Q8NGX5)
T9 sequence (whole entry): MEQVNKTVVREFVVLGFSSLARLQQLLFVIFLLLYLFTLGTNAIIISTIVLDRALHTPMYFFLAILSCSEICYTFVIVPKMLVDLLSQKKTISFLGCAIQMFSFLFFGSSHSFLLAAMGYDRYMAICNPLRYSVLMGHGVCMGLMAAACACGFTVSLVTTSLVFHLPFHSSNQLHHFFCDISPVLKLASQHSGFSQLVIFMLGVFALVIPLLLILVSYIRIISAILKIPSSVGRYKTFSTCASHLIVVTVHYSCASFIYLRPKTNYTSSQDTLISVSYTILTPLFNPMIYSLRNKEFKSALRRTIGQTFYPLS
In short: as §1

OR10K2 (Homo sapiens) = target: T10, OR10K2 (Homo sapiens) (UniProt Q6IF99)
T10 sequence (whole entry): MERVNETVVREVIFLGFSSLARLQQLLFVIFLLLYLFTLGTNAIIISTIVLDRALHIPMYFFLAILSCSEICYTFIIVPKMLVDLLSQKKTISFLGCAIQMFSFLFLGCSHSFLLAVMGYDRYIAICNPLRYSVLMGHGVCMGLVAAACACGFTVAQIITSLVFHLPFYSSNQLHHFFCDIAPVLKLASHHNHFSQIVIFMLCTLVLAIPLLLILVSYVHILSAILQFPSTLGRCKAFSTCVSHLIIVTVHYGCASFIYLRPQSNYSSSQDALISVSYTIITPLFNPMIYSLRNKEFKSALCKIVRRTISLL
In short: as §1

Measured: odorant receptor agonist call

CCCCOC(C)=O
inactive: all assays above

Source: the M2OR odorant receptor database
